This note sets out measurements from patent publication US8512707B2 (Seattle Genetics, Inc., priority 2006, dated 2013).

A short description of series [1]: general procedure: Fmoc solid-phase peptide synthesis; 2-chlorotrityl resin; HATU/DIEA (solid phase); DEPC/DIEA (solution). Conditions: whole synthesis, scale 0.044 mmol.
Series [2] can be described thus: general procedure: Fmoc solid-phase peptide synthesis; Phenylalanine-2-chlorotrityl resin (0.55 mmol/gram); HATU/DIEA (solid phase); DEPC/DIEA (solution). The conditions noted are these: for final HPLC purity: Reversed-phase HPLC analysis; for isolated yield: on resin loading.
The mark [3] stands for this setting: whole synthesis, scale of the general procedure 0.55 mmol.
The mark [4] stands for this setting: whole synthesis, scale 0.088 mmol.
The mark [5] stands for this setting: whole synthesis, scale 0.053 mmol.

With MeVal-Val-Dil-Dap-Phe, the isolated mass in series [1] worked out at 27 mg. Besides, the “final HPLC purity” value in series [2] (setting [3]) was 95%. The substance also showed an isolated yield in series [2] (whole synthesis, scale 0.044 mmol) of 73%.
Consider Maleimidocaproyl-Val-Cit-MMAF, for which the “final HPLC purity” value in series [2] (setting [3]) is 98%. For the same substance, in series [2] (setting [4]), the isolated yield came out at 27% and the isolated mass is reported as 28 mg.
With Maleimidocaproyl-Val-Cit-PABC-MMAF-OMe, in series [2] (conjugation step), the conjugation yield amounted to 52% and the “final HPLC purity” value is on record as 95%.
Regarding Maleimidocaproyl-Val-Cit-PABC-MMAF, the “final HPLC purity” value in series [2] (setting [3]) was 98% pure. For the same substance, in series [2] (setting [5]), the isolated yield was 21% and the isolated mass is 15 mg.
